# Results: US20100143453A1, “ANTI-INFLAMMATORY COMPOUNDS CONTAINING COMPOSITIONS FOR TREATMENT OF CANCER” (priority 2006, published 2010)
# Some of these results come from one statement about several compounds together.
# System: B16F10 melanoma
# Assay: Tumor growth inhibition in B16F10 melanoma bearing mice
# Type: in vivo
# Details: encapsulated in long-circulating liposomes, dose 10 mg pravastatin/kg body weight
smiles,measurement,value
CC[C@H](C)C(=O)O[C@H]1C[C@H](O)C=C2C=C[C@H](C)[C@H](CC[C@@H](O)C[C@@H](O)CC(=O)O)[C@H]21 [pravastatin],tumor growth reduction,more than 60%
